These are literature values, as cited in patent publication US6589563B2 (Nanodelivery, Inc., priority 1999, dated 2003).

SMILES strings stand for the structures.

For the data set the following is noted: cited from earlier work.

With `CC(=O)O[C@H]1C(=O)[C@@]2(C)[C@H]([C@H](OC(=O)c3ccccc3)[C@]3(O)C[C@H](OC(=O)[C@H](O)[C@@H](NC(=O)c4ccccc4)c4ccccc4)C(C)=C1C3(C)C)[C@]1(OC(C)=O)CO[C@@H]1C[C@@H]2O` [Taxol, Paclitaxel], the water solubility result was “water-insoluble”.
